Experimental data published in patent US6566077B1 (Tecnogen S.C.p.A., priority 1995, dated 2003).

experiment: general procedure: Fmoc solid-phase peptide synthesis; acid-labile chlorotrityl resin prederivatized with Fmoc-glycine (Novabiochem Cat No. 04-12-2800); HOBt/DCC; conditions: whole synthesis, RP-HPLC, scale of the general procedure 0.1 mmole

Substance	crude HPLC purity [%]
(H-D-Arg-D-Thr-D-Tyr-)4-Lys2-Lys-GlyOH	97
(H-L-Tyr-L-Thr-L-Arg-)4-Lys2-Lys-Gly-OH	96
(H-D-Tyr-D-Thr-D-Arg-)4-Lys2-Lys-Gly-OH	97

same assay, conditions: whole synthesis, scale of the general procedure 0.1 mmole

Substance	crude yield [%]
(H-D-Arg-D-Thr-D-Tyr-)4-Lys2-Lys-GlyOH	75
(H-L-Tyr-L-Thr-L-Arg-)4-Lys2-Lys-Gly-OH	79
(H-D-Tyr-D-Thr-D-Arg-)4-Lys2-Lys-Gly-OH	81
